Reference: the supplement of paper PMC10849652
The other results are listed elsewhere or left out.

Protein sequences, listed by entry. Tags and fused reporters are not part of them. Lines headed by an entry give the natural chain unless they say otherwise; changes in a name come on top.
UniProt P04843: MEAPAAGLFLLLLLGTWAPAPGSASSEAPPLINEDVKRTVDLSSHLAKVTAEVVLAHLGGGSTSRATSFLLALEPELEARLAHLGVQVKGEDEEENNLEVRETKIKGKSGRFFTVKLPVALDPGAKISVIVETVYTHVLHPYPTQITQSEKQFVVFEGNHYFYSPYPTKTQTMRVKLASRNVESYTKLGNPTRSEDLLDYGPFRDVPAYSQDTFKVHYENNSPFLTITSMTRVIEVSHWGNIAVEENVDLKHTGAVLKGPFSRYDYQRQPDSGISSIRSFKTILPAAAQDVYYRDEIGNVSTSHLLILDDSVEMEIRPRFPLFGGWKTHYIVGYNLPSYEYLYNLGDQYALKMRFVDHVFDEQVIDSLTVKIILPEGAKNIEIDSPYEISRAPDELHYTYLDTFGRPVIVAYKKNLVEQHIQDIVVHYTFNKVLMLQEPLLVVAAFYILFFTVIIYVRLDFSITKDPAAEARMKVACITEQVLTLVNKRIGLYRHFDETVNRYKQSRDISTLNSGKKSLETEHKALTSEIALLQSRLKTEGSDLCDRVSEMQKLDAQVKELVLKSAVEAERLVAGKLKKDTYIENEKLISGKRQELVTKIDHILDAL
UniProt P04844: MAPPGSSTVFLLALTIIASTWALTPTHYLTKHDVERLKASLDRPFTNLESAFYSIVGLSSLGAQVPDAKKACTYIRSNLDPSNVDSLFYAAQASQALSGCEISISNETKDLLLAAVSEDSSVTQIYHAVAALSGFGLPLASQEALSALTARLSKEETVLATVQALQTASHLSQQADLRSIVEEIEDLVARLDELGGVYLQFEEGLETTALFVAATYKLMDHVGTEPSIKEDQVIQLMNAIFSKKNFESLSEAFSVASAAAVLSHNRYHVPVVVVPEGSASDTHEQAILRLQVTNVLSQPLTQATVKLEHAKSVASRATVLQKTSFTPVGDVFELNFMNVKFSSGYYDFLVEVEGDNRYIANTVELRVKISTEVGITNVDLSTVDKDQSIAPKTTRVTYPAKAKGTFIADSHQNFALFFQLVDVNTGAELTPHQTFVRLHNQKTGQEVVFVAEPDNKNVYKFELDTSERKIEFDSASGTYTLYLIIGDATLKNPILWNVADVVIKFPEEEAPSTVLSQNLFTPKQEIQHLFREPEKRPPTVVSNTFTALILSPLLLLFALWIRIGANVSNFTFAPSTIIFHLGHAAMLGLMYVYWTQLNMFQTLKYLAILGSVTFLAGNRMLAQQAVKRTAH
UniProt Q92901: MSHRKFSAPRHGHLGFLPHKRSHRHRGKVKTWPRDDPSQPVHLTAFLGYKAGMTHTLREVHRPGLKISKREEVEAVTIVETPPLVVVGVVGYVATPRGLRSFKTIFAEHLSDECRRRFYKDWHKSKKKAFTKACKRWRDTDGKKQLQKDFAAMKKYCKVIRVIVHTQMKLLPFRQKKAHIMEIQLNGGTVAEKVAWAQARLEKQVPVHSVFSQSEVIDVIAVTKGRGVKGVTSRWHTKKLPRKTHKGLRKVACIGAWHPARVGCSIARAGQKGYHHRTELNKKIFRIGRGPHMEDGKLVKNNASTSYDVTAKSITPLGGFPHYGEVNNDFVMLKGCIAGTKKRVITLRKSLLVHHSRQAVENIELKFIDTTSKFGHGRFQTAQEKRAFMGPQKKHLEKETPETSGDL
UniProt Q96BH1: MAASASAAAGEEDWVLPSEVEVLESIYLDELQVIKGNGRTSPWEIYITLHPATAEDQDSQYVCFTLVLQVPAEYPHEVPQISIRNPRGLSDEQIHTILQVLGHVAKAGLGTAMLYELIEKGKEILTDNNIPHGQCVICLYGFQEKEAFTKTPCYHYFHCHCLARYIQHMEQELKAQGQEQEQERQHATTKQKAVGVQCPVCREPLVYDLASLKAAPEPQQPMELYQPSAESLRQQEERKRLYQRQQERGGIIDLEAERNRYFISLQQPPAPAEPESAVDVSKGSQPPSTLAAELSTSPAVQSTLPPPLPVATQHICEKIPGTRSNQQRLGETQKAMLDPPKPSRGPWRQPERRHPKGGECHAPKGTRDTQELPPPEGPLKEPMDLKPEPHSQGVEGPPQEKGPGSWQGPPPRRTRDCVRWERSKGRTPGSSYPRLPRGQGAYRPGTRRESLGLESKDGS
UniProt Q99942: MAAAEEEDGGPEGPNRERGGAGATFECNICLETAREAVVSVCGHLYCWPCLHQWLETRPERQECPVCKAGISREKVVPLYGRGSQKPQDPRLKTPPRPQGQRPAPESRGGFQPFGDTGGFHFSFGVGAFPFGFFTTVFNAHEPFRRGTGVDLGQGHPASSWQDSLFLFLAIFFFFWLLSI
UniProt P05387, whole entry, looked up: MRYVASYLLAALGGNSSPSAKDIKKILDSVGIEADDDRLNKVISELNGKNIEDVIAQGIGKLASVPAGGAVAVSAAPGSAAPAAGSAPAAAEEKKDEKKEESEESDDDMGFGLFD
UniProt Q9BWH6: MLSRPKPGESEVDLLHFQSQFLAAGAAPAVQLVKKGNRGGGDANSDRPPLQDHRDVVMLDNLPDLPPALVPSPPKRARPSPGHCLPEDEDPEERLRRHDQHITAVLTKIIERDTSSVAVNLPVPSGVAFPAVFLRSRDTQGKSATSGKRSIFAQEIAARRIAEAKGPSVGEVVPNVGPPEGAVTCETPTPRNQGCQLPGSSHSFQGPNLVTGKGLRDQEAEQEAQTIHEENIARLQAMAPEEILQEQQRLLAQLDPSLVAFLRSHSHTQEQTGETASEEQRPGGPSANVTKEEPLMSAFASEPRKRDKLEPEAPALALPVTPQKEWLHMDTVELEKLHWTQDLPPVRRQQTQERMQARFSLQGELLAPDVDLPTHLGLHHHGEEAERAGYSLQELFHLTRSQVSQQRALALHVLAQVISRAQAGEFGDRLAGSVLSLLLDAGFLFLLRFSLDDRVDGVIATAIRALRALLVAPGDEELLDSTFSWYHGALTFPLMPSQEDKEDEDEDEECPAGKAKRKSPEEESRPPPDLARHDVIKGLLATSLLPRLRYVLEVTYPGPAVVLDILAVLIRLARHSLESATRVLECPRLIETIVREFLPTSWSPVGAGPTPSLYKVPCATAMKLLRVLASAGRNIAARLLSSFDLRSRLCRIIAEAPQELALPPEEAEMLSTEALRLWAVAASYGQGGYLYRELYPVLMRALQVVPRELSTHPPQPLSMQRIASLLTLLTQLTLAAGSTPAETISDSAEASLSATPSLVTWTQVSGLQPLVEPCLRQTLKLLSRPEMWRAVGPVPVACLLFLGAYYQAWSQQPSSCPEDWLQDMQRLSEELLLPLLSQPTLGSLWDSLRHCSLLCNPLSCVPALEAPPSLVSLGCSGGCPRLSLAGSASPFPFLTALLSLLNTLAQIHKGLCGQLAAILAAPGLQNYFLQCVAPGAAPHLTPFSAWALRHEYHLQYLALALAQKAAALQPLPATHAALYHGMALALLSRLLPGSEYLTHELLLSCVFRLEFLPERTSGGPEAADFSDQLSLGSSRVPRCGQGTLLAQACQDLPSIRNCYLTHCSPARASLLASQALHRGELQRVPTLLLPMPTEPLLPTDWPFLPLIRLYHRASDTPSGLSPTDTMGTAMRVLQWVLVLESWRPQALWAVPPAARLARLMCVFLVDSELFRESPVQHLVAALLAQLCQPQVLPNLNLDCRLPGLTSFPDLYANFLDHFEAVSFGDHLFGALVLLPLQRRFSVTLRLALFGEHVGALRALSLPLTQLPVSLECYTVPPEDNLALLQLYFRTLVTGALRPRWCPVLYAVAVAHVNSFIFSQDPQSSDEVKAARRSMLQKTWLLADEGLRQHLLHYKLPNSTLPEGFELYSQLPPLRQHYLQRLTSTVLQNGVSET
UniProt P10155: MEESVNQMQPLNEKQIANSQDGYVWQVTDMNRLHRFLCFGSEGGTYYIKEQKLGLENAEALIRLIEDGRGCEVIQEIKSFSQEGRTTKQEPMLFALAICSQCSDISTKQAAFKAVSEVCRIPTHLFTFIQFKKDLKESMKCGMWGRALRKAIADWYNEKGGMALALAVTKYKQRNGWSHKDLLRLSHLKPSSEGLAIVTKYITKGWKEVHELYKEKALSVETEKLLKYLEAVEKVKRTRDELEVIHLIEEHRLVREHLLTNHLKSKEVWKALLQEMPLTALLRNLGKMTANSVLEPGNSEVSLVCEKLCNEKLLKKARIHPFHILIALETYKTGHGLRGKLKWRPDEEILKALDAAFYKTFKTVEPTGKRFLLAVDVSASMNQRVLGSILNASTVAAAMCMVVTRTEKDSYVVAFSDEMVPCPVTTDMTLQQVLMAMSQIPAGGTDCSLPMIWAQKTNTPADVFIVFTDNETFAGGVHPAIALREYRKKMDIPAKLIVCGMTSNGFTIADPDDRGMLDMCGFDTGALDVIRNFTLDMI
UniProt Q96S38: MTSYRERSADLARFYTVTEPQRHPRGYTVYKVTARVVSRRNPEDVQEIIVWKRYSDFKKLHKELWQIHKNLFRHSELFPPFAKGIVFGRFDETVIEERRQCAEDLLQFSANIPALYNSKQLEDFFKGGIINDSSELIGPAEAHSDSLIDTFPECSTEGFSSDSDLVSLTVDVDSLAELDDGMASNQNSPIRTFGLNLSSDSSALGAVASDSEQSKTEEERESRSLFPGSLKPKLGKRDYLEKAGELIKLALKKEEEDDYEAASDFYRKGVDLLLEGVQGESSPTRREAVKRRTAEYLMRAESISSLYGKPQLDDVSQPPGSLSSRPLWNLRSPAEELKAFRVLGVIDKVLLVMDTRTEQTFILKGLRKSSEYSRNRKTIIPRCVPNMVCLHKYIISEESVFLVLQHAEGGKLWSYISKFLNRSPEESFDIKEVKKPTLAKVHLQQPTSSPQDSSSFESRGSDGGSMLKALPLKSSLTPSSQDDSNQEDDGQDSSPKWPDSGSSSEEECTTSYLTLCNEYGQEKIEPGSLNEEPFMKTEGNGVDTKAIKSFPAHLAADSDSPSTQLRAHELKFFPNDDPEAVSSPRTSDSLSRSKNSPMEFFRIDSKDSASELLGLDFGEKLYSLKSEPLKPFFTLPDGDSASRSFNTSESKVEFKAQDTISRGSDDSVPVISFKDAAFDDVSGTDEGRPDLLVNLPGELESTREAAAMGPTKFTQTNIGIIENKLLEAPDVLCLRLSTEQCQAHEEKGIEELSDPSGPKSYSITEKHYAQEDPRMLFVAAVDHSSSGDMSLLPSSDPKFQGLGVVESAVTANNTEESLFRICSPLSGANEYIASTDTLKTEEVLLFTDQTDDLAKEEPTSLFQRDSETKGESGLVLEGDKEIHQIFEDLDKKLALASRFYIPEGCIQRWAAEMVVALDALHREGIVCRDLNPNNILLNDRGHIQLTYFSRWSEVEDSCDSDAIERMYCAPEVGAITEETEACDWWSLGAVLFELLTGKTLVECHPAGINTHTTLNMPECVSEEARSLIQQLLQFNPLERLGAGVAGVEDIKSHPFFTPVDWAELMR
UniProt P60602: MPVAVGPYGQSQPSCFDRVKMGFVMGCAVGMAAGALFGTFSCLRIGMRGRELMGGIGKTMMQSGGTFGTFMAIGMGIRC
UniProt Q7LG56, whole entry, looked up: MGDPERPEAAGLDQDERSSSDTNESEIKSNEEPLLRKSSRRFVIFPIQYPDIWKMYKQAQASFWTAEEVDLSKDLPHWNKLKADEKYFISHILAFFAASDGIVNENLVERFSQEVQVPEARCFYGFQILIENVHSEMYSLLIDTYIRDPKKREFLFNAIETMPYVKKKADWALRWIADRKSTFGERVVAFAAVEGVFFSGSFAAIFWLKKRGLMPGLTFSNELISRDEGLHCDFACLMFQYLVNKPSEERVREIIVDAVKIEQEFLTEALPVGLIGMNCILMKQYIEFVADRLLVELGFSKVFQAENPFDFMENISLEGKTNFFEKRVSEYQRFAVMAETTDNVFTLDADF
UniProt Q9H6T3, whole entry, looked up: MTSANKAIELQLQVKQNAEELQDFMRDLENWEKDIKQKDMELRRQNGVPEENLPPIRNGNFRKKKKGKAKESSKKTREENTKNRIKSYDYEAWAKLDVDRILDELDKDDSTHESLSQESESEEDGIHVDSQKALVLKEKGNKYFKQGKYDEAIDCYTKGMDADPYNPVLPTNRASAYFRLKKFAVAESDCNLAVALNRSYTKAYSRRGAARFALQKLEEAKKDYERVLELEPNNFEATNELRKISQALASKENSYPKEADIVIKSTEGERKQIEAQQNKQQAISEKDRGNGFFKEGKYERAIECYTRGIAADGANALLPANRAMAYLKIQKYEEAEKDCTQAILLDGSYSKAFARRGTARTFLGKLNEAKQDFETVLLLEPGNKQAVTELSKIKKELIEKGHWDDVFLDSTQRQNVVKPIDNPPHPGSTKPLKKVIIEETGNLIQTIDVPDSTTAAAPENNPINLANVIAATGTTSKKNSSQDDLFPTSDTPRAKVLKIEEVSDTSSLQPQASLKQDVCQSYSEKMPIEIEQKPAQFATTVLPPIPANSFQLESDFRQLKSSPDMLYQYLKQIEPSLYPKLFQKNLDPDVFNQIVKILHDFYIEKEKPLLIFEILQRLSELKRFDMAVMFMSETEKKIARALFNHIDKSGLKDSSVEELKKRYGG

How the values were obtained:
Assay in all cases: log2 fold change, soluble protein after heating vs DMSO (PISA); higher = thermal stabilisation; K562 cells, 10 uM, 30 min; active = over 0.2 and 3.5 SD of the protein, either way, in both replicates (recomputed)
[1] = compound: NC(=O)Nc1cc(-c2cccc(F)c2)sc1C(=O)N[C@H]1CCCNC1
Procedure, shortened: (§1)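 K562 cells at 2×10^6 cells/mL were exposed to 10 μM compound for 30 min, then aliquots were heated for 3 min across 48°C-58°C, pooled, and extracted in PBS containing 0.5% NP-40 at 4°C. The supernatant after 21,000xg for 90 min was taken as soluble protein and measured by TMTpro 16plex LC-MS/MS with channel sums equalised. Thermal stability is reported relative to control samples, with values from duplicates. Fold changes are given on a log2 scale.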

[2] = compound: NC(=O)c1cnc(N[C@@H]2CCCC[C@@H]2N)nc1Nc1cccc(-n2nccn2)c1
Procedure, shortened: as §1

[3] = compound: NC1(c2ccc(-c3nc4ccn5c(=O)[nH]nc5c4cc3-c3ccccc3)cc2)CCC1
Procedure, shortened: as §1

[4] = compound: NCC(=O)Nc1ccc(-n2nc(C(F)(F)F)cc2-c2ccc3c(ccc4ccccc43)c2)cc1
Procedure, shortened: as §1

entinostat = compound: Nc1ccccc1NC(=O)c1ccc(CNC(=O)OCc2cccnc2)cc1 [entinostat]
Procedure, shortened: as §1

vorinostat = compound: O=C(CCCCCCC(=O)Nc1ccccc1)NO [vorinostat]
Procedure, shortened: as §1

citarinostat = compound: O=C(CCCCCCNC(=O)c1cnc(N(c2ccccc2)c2ccccc2Cl)nc1)NO [citarinostat]
Procedure, shortened: as §1

silmitasertib = compound: O=C(O)c1ccc2c(c1)nc(Nc1cccc(Cl)c1)c1ccncc12 [silmitasertib]
Procedure, shortened: as §1

[5] = compound: O=C1NC(=O)C(c2cnc3ccccn23)=C1c1cn2c3c(cc(F)cc13)CN(C(=O)N1CCCCC1)CC2
Procedure, shortened: as §1

[6] = compound: c1cc(OCCN2CCCCC2)cc(-c2n[nH]c3ccc(-c4nnc[nH]4)cc23)c1
Procedure, shortened: as §1

entospletinib = compound: c1cn2cc(-c3ccc4cn[nH]c4c3)nc(Nc3ccc(N4CCOCC4)cc3)c2n1 [entospletinib]
Procedure, shortened: as §1

Measured: log2 fold change

RPL12 (UniProt P30050)
inactive: [1] 0.05 | [2] 0.128 | [3] 0.466 | [4] 0.22 | entinostat -0.169 | vorinostat -0.024 | citarinostat -0.196 | silmitasertib 0.193 | [5] 0.216 | [6] -0.286 | entospletinib 0.135

RPL17 isoform 3 (UniProt P18621)
inactive: [1] 0.209 | [2] 0.248 | [3] 0.39 | [4] 0.268 | entinostat -0.072 | vorinostat -0.048 | citarinostat -0.206 | silmitasertib 0.084 | [5] 0.213 | [6] -0.251 | entospletinib 0.296

RPL22 (UniProt P35268)
inactive: [1] 0.004 | [2] 0.036 | [3] 0.305 | [4] 0.074 | entinostat -0.078 | vorinostat 0.024 | citarinostat -0.089 | silmitasertib 0.067 | [5] 0.131 | [6] -0.19 | entospletinib 0.092

RPN1 (UniProt P04843)
inactive: [1] -0.026 | [2] -0.043 | [3] -0.068 | [4] -0.053 | entinostat 0.014 | vorinostat 0.032 | citarinostat 0.024 | silmitasertib -0.016 | [5] -0.061 | [6] -0.03 | entospletinib -0.018

RPL3 (UniProt P39023)
inactive: [1] 0.21 | [2] 0.164 | [3] 0.455 | [4] 0.269 | entinostat -0.102 | vorinostat -0.03 | citarinostat -0.228 | silmitasertib 0.208 | [5] 0.273 | [6] -0.372 | entospletinib 0.114

RPL7 (UniProt P18124)
inactive: [1] 0.29 | [2] 0.213 | [3] 0.472 | [4] 0.358 | entinostat -0.114 | vorinostat -0.047 | citarinostat -0.248 | silmitasertib 0.21 | [5] 0.277 | [6] -0.389 | entospletinib 0.132

RPN2 (UniProt P04844)
inactive: [1] -0.017 | [2] -0.015 | [3] -0.08 | [4] 0 | entinostat 0.011 | vorinostat 0.012 | citarinostat 0.034 | silmitasertib 0.013 | [5] -0.013 | [6] -0.031 | entospletinib -0.011

RPL35A (UniProt P18077)
inactive: [1] 0.253 | [2] 0.131 | [3] 0.465 | [4] 0.283 | entinostat -0.113 | vorinostat -0.016 | citarinostat -0.206 | silmitasertib 0.245 | [5] 0.199 | [6] -0.287 | entospletinib 0.037

RPL32 (UniProt P62910)
inactive: [1] 0.224 | [2] 0.213 | [3] 0.387 | [4] 0.296 | entinostat -0.058 | vorinostat -0.15 | citarinostat -0.162 | silmitasertib 0.177 | [5] 0.261 | [6] -0.298 | entospletinib 0.107

RPS23 (UniProt P62266)
inactive: [1] 0.154 | [2] 0.145 | [3] 0.407 | [4] 0.169 | entinostat -0.08 | vorinostat 0 | citarinostat -0.086 | silmitasertib 0.117 | [5] 0.181 | [6] -0.237 | entospletinib 0.09

RPS29 (UniProt P62273)
inactive: [1] -0.026 | [2] 0.223 | [3] 0.276 | [4] 0.256 | entinostat -0.019 | vorinostat -0.068 | citarinostat -0.213 | silmitasertib -0.079 | [5] 0.118 | [6] 0.093 | entospletinib 0.226

RPL3L (UniProt Q92901)
inactive: [1] 0.284 | [2] 0.185 | [3] 0.407 | [4] 0.31 | entinostat -0.06 | vorinostat -0.071 | citarinostat -0.251 | silmitasertib 0.237 | [5] 0.303 | [6] -0.456 | entospletinib 0.104

RNF25 (UniProt Q96BH1)
inactive: [1] -0.014 | [2] 0.012 | [3] -0.063 | [4] -0.035 | entinostat 0.037 | vorinostat -0.076 | citarinostat 0.098 | silmitasertib -0.021 | [5] -0.032 | [6] -0.045 | entospletinib 0.024

RPL6 (UniProt Q02878)
inactive: [1] 0.248 | [2] 0.186 | [3] 0.45 | [4] 0.277 | entinostat -0.105 | vorinostat -0.036 | citarinostat -0.239 | silmitasertib 0.176 | [5] 0.291 | [6] -0.364 | entospletinib 0.09

RPL10 (UniProt P27635)
inactive: [1] 0.195 | [2] 0.133 | [3] 0.371 | [4] 0.21 | entinostat -0.053 | vorinostat 0.013 | citarinostat -0.158 | silmitasertib 0.117 | [5] 0.28 | [6] -0.281 | entospletinib 0.073

RPS7, A0A2R8Y623
inactive: [1] 0.286 | [2] 0.572 | [3] -0.117 | [4] 0.172 | entinostat 0.18 | citarinostat -0.189 | silmitasertib -0.194 | [6] 0.959 | entospletinib -0.211

RNF5 (UniProt Q99942)
inactive: [1] 0.075 | [2] -0.028 | [3] -0.144 | [4] -0.06 | entinostat 0.086 | vorinostat -0.101 | citarinostat -0.026 | silmitasertib -0.043 | [5] -0.008 | [6] -0.052 | entospletinib -0.033

RPLP2 (UniProt P05387)
inactive: [1] 0.079 | [2] 0.093 | [3] 0.436 | [4] 0.355 | entinostat -0.132 | vorinostat -0.029 | citarinostat -0.202 | silmitasertib 0.188 | [5] 0.227 | [6] -0.386 | entospletinib 0.061

RPAP1 (UniProt Q9BWH6)
inactive: [1] 0.027 | [2] -0.019 | [3] -0.068 | [4] -0.05 | entinostat 0.006 | vorinostat 0.019 | citarinostat 0.045 | silmitasertib 0.04 | [5] 0.03 | [6] -0.021 | entospletinib -0.009

RO60 (UniProt P10155)
inactive: [1] -0.049 | [2] -0.014 | [3] -0.01 | [4] -0.02 | entinostat -0.043 | vorinostat -0.053 | citarinostat 0.001 | silmitasertib 0 | [5] 0.028 | [6] -0.019 | entospletinib 0.04

RPS6KC1 (UniProt Q96S38)
inactive: [1] -0.048 | [2] -0.159 | [3] -0.071 | [4] 0.005 | entinostat 0.07 | vorinostat 0.134 | citarinostat 0.016 | silmitasertib 0.117 | [5] -0.019 | [6] 0.014 | entospletinib 0.208

RPL13A (UniProt P40429)
inactive: [1] 0.23 | [2] 0.206 | [3] 0.439 | [4] 0.322 | entinostat -0.144 | vorinostat -0.053 | citarinostat -0.218 | silmitasertib 0.242 | [5] 0.296 | [6] -0.397 | entospletinib 0.074

RPL29 (UniProt P47914)
inactive: [1] 0.239 | [2] 0.205 | [3] 0.508 | [4] 0.43 | entinostat -0.141 | vorinostat -0.026 | citarinostat -0.176 | silmitasertib 0.162 | [5] 0.487 | [6] -0.33 | entospletinib 0.128

RPL21 (UniProt P46778)
inactive: [1] 0.252 | [2] 0.134 | [3] 0.478 | [4] 0.328 | entinostat -0.088 | vorinostat -0.01 | citarinostat -0.14 | silmitasertib 0.195 | [5] 0.157 | [6] -0.268 | entospletinib 0.175

2 records picked at random from those above, as already listed:
RPL35A (UniProt P18077)
inactive: [1] 0.253 | [2] 0.131 | [3] 0.465 | [4] 0.283 | entinostat -0.113 | vorinostat -0.016 | citarinostat -0.206 | silmitasertib 0.245 | [5] 0.199 | [6] -0.287 | entospletinib 0.037

RO60 (UniProt P10155)
inactive: [1] -0.049 | [2] -0.014 | [3] -0.01 | [4] -0.02 | entinostat -0.043 | vorinostat -0.053 | citarinostat 0.001 | silmitasertib 0 | [5] 0.028 | [6] -0.019 | entospletinib 0.04

Next part.

RPS24 isoform 4 (UniProt P62847)
inactive: [1] 0.092 | [2] 0.121 | [3] 0.196 | [4] 0.076 | entinostat -0.017 | vorinostat 0.044 | citarinostat -0.06 | silmitasertib 0.067 | [5] 0.147 | [6] -0.198 | entospletinib 0.057

ROMO1 (UniProt P60602)
inactive: [1] -0.105 | [2] 0.046 | [3] -0.051 | entinostat 0.011 | vorinostat -0.013 | citarinostat 0.072 | silmitasertib 0.032 | [5] 0.062 | [6] -0.042

RPS15A (UniProt P62244)
inactive: [1] 0.074 | [2] 0.225 | [3] 0.255 | [4] 0.133 | entinostat -0.087 | vorinostat -0.002 | citarinostat -0.127 | silmitasertib 0.07 | [5] 0.158 | [6] -0.255 | entospletinib 0.034

RRM2B isoform 6 (UniProt Q7LG56)
inactive: [1] -0.019 | [2] -0.035 | [3] -0.035 | [4] 0.015 | entinostat -0.031 | vorinostat -0.058 | citarinostat 0.025 | silmitasertib -0.003 | [5] -0.087 | [6] -0.016 | entospletinib 0.033

RPS7 (UniProt P62081)
inactive: [1] 0.089 | [2] 0.092 | [3] 0.328 | [4] 0.125 | entinostat -0.029 | vorinostat -0.011 | citarinostat -0.11 | silmitasertib -0.058 | [5] 0.096 | [6] -0.218 | entospletinib 0.118

RPAP3 (UniProt Q9H6T3)
inactive: [1] -0.117 | [2] -0.079 | [3] -0.084 | [4] -0.105 | entinostat 0.033 | vorinostat 0.064 | citarinostat 0.019 | silmitasertib 0.016 | [5] 0.017 | [6] -0.049 | entospletinib 0.054

RPL30 (UniProt P62888)
inactive: [1] 0.077 | [2] 0.175 | [3] 0.502 | [4] 0.294 | entinostat -0.145 | vorinostat -0.035 | citarinostat -0.209 | silmitasertib 0.166 | [5] 0.292 | [6] -0.33 | entospletinib 0.123

RPS11 (UniProt P62280)
inactive: [1] 0.097 | [2] 0.148 | [3] 0.279 | [4] 0.091 | entinostat -0.077 | vorinostat -0.023 | citarinostat -0.125 | silmitasertib 0.039 | [5] 0.121 | [6] -0.212 | entospletinib 0.101

RPL27 (UniProt P61353)
inactive: [1] 0.078 | [2] 0.298 | [3] 0.436 | [4] 0.395 | entinostat -0.138 | vorinostat -0.012 | citarinostat -0.172 | silmitasertib 0.178 | [5] 0.244 | [6] -0.273 | entospletinib 0.063

RPL37A (UniProt P61513)
inactive: [1] 0.132 | [2] 0.241 | [3] 0.512 | [4] 0.39 | entinostat -0.129 | vorinostat -0.026 | citarinostat -0.216 | silmitasertib 0.085 | [5] 0.171 | [6] -0.328 | entospletinib 0.127

RPS17 (UniProt P08708)
inactive: [1] 0.03 | [2] 0.058 | [3] 0.222 | [4] 0.067 | entinostat -0.046 | vorinostat 0.01 | citarinostat -0.045 | silmitasertib -0.027 | [5] 0.077 | [6] -0.155 | entospletinib 0.074

RPL26L1 (UniProt Q9UNX3)
inactive: [1] 0.157 | [2] 0.169 | [3] 0.415 | [4] 0.141 | entinostat -0.063 | vorinostat 0 | citarinostat -0.184 | silmitasertib -0.048 | [5] 0.216 | [6] -0.165 | entospletinib 0.097

RPL5 (UniProt P46777)
inactive: [1] 0.045 | [2] 0.056 | [3] 0.322 | [4] 0.141 | entinostat -0.08 | vorinostat 0.028 | citarinostat -0.113 | silmitasertib 0.097 | [5] 0.122 | [6] -0.179 | entospletinib 0.147
